In the supplement of paper PMC3334620:
The full ranking holds about 33,000 sequences; the median of “E-score (-0.5 to 0.5)” is about -0.0059, and the highest 2% start at about 0.26. The list shows a part of the results.

Target: T1, Cin5 (UniProt P40917)
T1 sequence: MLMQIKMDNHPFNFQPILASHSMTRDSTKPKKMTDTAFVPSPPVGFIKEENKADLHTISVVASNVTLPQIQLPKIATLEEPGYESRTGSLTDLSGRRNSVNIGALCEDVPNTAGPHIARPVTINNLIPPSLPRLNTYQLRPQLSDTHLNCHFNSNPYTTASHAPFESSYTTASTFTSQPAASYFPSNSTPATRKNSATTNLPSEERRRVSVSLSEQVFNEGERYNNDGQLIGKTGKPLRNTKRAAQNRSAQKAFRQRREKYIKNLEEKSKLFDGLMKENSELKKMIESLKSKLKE
Experiment: PBM E-score (8-mer binding enrichment) (E-score (-0.5 to 0.5)); higher = stronger / more preferred TF binding
Details: protein concentration: 100 nM; construct: GST-full length
Procedure, shortened: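 The E-score, a modified Wilcoxon-Mann-Whitney statistic, was computed by the Universal PBM Analysis Suite for every ungapped eight-base word pooled with its reverse complement. Scans behind it were normalised with masliner after bound GST-tagged yeast transcription factors were detected with fluorescent anti-GST. The proteins, at about 100-200 nM, had been applied to universal all-10-mer Agilent arrays made double-stranded by primer extension.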

| Sequence | PBM E-score |
| --- | --- |
| CGATCCTA | -0.0425 |
| AGCCAGAT | -0.0293 |
| GGAACTAA | 0.163 |
| AATTACGC | 0.073 |
| CTGACGGC | -0.165 |
| AGGCAAAA | 0.167 |
| ATCACAGA | -0.0171 |
| GTCGACAA | -0.0882 |
| TATACAAA | 0.169 |
| CCAATGAG | -0.0379 |
| AGCTGTCG | -0.274 |
| ACAAGTTC | 0.0429 |
| AACGGACC | -0.0992 |
| ACCGAGAG | 0.0123 |
| GGGCGTGA | -0.113 |
| CCGAAGAG | -0.116 |
| GCCGCTTA | 0.156 |
| TAATCCAA | 0.283 |
| ACTCGAAG | -0.252 |
| CCCTCTCA | -0.231 |
| CCCCAAAC | -0.0852 |
| CCCGAGTA | 0.15 |
| ACCCCCAT | -0.356 |
| ATATGTCC | 0.0709 |
| CCGCACTA | 0.0168 |

| Sequence | PBM E-score |
| --- | --- |
| CTTCCTAA | -0.0712 |
| CGTGGGAG | -0.279 |
| CCGAACCC | -0.231 |
| CGCTCGCA | 0.0447 |
| AAAACAGA | 0.197 |
| ACTCTGTC | 0.0135 |
| ATACTTTC | 0.122 |
| GCCACGAA | -0.23 |
| CTTGATAA | 0.177 |
| GTCAGCAC | 0.117 |
| TACTATCA | 0.179 |
| ACCCGCGT | -0.0918 |
| GGGGCAGA | -0.0398 |
| CATATACC | -0.0774 |
| GTTTCGCA | -0.113 |
| ATCAGAGA | 0.0158 |
| CATTCTAA | -0.0081 |
| AATCACTC | 0.0605 |
| ACGCACCA | -0.0787 |
| ACTAAGCA | 0.241 |
| CCTGCTGC | -0.0577 |
| GAAGTGTC | -0.00163 |
| ACTGAGTG | -0.0469 |
| AGGTTTCA | 0.107 |
| ACGGGAAC | 0.031 |

| Sequence | PBM E-score |
| --- | --- |
| AGAAGGAA | -0.157 |
| AGATAGCA | 0.18 |
| AGCGTTAA | 0.0126 |
| ACGTGTTA | 0.215 |
| CTAGGCGA | -0.0512 |
| GACTTTAC | 0.0588 |
| ATTGTTCA | 0.101 |
| CTACATGA | -0.127 |
| CTGTTTGC | 0.075 |
| AGGCCACG | -0.155 |
| TAGCGCGA | 0.13 |
| CGATTGAA | -0.0302 |
| CGATAGTA | 0.0573 |
| AGCCGTAC | 0.0736 |
| CGAGCATC | 0.0462 |
| AGAACGAA | 0.115 |
| AGCCGACT | -0.275 |
| ACAAACAG | 0.127 |
| TCTGGGCA | -0.124 |
| TGAAGACA | -0.137 |
| GATAAGAA | 0.141 |
| CCCGGCCA | -0.288 |
| CGCGCCGA | -0.124 |
| GCTGCGCC | -0.211 |
| CAACTAAG | 0.182 |

| Sequence | PBM E-score |
| --- | --- |
| AGCCCTTC | -0.333 |
| CAGCTGCA | -0.143 |
| CAAGTCTC | -0.274 |
| ACGTCCAC | -0.124 |
| GAACCAAA | -0.083 |
| AGCATAAA | 0.148 |
| ACCGAAAT | 0.116 |
| AGCCACCC | -0.251 |
| AGCAGTCG | -0.0658 |
| AAAGGTAT | 0.101 |
| ACCTAAGC | 0.327 |
| CGGATACC | 0.0163 |
| AGATCAGA | -0.036 |
| CGTTCTCC | -0.0269 |
| AGTAGGAC | 0.0243 |
| TGCCACCA | -0.243 |
| ACTGATAG | -0.00682 |
| ACGTTAAG | -0.0111 |
| AGAAGCAC | -0.0648 |
| ATCTAACG | -0.032 |
| GGTGCTCA | -0.186 |
| AATCTAGA | -0.0566 |
| CGGACCGC | -0.112 |
| AAGACGTC | -0.132 |
| CCTATGAG | -0.0979 |

| Sequence | PBM E-score |
| --- | --- |
| AGAGCGAC | -0.129 |
| AGATGACG | 0.0912 |
| AAAAACGC | -0.0218 |
| CATCTCGC | 0.0181 |
| AGCTAGTC | 0.0266 |
| ACCTGCAG | -0.129 |
| AACTGTCA | 0.0613 |
| AGTTGCGA | 0.196 |
| CCCTCGAG | -0.113 |
| ACCCTTGA | -0.137 |
| ACAATGCG | 0.187 |
| ACAGTGTA | -0.00594 |
| GAGTTGCC | 0.0728 |
| TAAAGTGA | 0.218 |
| ACGGTAAA | 0.0258 |
| ACTCCAAG | 0.0126 |
| TCACGTCA | 0.209 |
| TTTGCAAA | 0.083 |
| GTCTAGCA | -0.0616 |
| AGTGGGGC | -0.217 |
| GAAGTGCA | 0.0711 |
| AAGATAAT | 0.147 |
| GCGGTCAA | -0.0866 |
| CCGCGGTC | -0.104 |
| CATATTTA | 0.157 |

Four records drawn at random from those above, as already listed:

| Sequence | PBM E-score |
| --- | --- |
| AAGATAAT | 0.147 |
| AGTTGCGA | 0.196 |
| ACGGTAAA | 0.0258 |
| GAAGTGCA | 0.0711 |

Following part.

| Sequence | PBM E-score |
| --- | --- |
| GCCCTAGC | -0.121 |
| CGTGACTA | -0.018 |
| AATACCGA | -0.106 |
| ACTCTGAA | 0.0787 |
| CTAATCGA | 0.202 |
| AGATAAGA | 0.215 |
| CTTACAGA | -0.0723 |
| AGCGCAGC | -0.149 |
| CAATGCAG | -0.056 |
| ATAGAGAA | 0.096 |
| CCCGATGA | 0.169 |
| TATGGCGA | -0.093 |
| CAGTCAAA | -0.111 |
| ACAGGCAC | -0.167 |
| CGCATAGA | 0.177 |
| TCTTAACA | 0.0509 |
| AAACGCTT | 0.0152 |
| CACTTGAA | 0.125 |
| AGGAGCAT | -0.108 |
| AGTTAACC | 0.0936 |
| AATACATT | 0.151 |
| CGAGACGC | 0.0025 |
| ATCCGCCG | 0.105 |
| AGTTGTTA | 0.122 |
| AAGCGTGT | -0.101 |

| Sequence | PBM E-score |
| --- | --- |
| AGCCAGTG | -0.171 |
| TCGGGTCA | 0.102 |
| CGCTATAA | 0.0317 |
| CCAAATGC | 0.0481 |
| AGTACTAT | 0.0786 |
| ACTATGCC | 0.0439 |
| ATTACTCA | 0.237 |
| CCCTGCGG | -0.205 |
| AACACTCT | 0.0668 |
| ACAATGTC | 0.102 |
| AAAAGTGG | 0.147 |
| AGAAGCCC | -0.208 |
| GGGCCCCA | -0.285 |
| CATAGGTC | -0.0601 |
| CAAGTACG | -0.0468 |
| ATCCTGCA | 0.147 |
| AGTCCTCA | -0.0783 |
| CGCAGACG | -0.00926 |
| GACCGATC | -0.213 |
| ATTGAATG | 0.233 |
| GTGTTGAA | 0.0739 |
| AAGGTCCA | -0.0721 |
